Consider one substance from patent publication US20260232767A1 (Janssen Pharmaceutica NV, priority 2023, published 2026).

The nature of the data set: general procedure: Fmoc solid-phase peptide synthesis; Rink amide AM resin (substitution: 0.95 mmol/g); DIC. Particulars: purification step, partial HCl salt.

For the substance “Ac-[Pen]*-N-T-[W(7-Me)]-[Lys(Ac)]-[Pen]*-Phe[4-(2-aminoethoxy)]-[2-Nal]-[THP]-E-N-[3-Pal]-Sarc-NH2 (*[Pen]-[Pen]* form disulfide bond)”, the “final HPLC purity” value was found to be 99.4%.
